Test results from PubChem BioAssay AID1347423 (Functional Genomics Laboratory (NCATS/FGL), 2020).
The whole screen tested about 52,000 sequences, of which about 210 (0.4%) were called active.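 Rule for the calls: active = gene whose silencing raises cell survival under the drug, median off-target-corrected z-score across its silencing RNAs 2 or more; inactive = the rest.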 Some of the results follow.

Assay: Resistance to Poly (ADP-Ribose) Polymerase inhibitor: Gene Identification via Genome-wide siRNA Screen
Settings: mouse BRCA2 R2336H ES cells, olaparib, CellTiter-Glo viability; hits give high values
How it was run: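 Genome-wide siRNA screen (3 siRNAs/gene, 20 nM) in mouse ES cells carrying hypomorphic BRCA2 R2336H; olaparib 500 nM added 48 h post-transfection, CellTiter-Glo viability 72 h later. Normalized to plate-median negative control; MAD z-scores, gene median, seed-adjusted.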

Row | Sequence | z-score
1 | CCACGAGGAGCUCAUUUUCTT against Dhfr | inactive: 2.45
2 | GGUUUGUCGAAUUGUUGUATT against Ostn | inactive: 0.575
3 | GGCUAUGGAGCACUCACAATT against 2810458H16Rik | inactive: -0.944
4 | GGACUAGCAAGCUCUUCAGTT against Fancd2 | inactive: 1.08
5 | GCUGAAGAAGUGCUCUUCUTT against Rarres2 | inactive: 1.63
6 | CCACCUUCUAUCAGCAAAUTT against 4930433I11Rik | inactive: 3.43
7 | GGAAAGUUACAACAGAUAATT against Pkn2 | inactive: -0.566
8 | GCCAGAAUGGACUUGAGAATT against V1re6 | inactive: -0.0714
9 | GCUGUACACAGUGAGGAAGTT against Gcat | inactive: 0.235
10 | CCGCACCAUUCAGCUUUUUTT against BC025076 | inactive: -1.47
11 | GCGAAAAAGAUCGUCCUUGTT against BC053071 | inactive: 1.11
12 | GCUAUAAUUUGACAGUUAGTT against Lrba | inactive: -0.291
13 | GGAAAUAAGAAUGUAGUGATT against Ahcyl1 | inactive: -0.214
14 | GCAGUACAUAGGACAAUACTT against D7Ertd462e | inactive: 0.284
15 | CCCAUAAUGAUAUAAACCUTT against A430108B07Rik | inactive: -0.15
16 | CCUCACCUAUGGCUAUGUCTT against Itga5 | inactive: -0.583
17 | GGUGGAAUCUCCUGAGAGUTT against Smarcd2 | inactive: 0.697
18 | CCAUGUGACAAAGCCUACCTT against 6330503C03Rik | inactive: -0.14
19 | GGUUGGUUCUUACUUGAAATT against 2310047O13Rik | inactive: -2
20 | GGAUCAUUGUUCUCUCAAGTT against Tnfsf5ip1 | inactive: -0.523
21 | GGAAGUAGAUUAGAUGGUATT against Akt3 | inactive: 1.13
22 | GGACAGACGAAUUGAAAACTT against 1700095N21Rik | inactive: 0.237
23 | AUGCGUCCUUCACCAACGATT against 2310037P21Rik | inactive: 1.89
24 | GGGCUUUUAUGUUUAACUUTT against Itpr3 | inactive: 1.67
25 | CCAUGUGACAGCAUUGUUGTT against Axin1 | inactive: -1.38
26 | UUCCAAUCCACAUAUGUUUTT against Tusc1 | inactive: -0.231

Row | Sequence | z-score
27 | GGAAAAACAUGUACAAAGATT against Xdh | inactive: 2.39
28 | GCUCUACUGCUUCUUAGUCTT against Olfr965 | inactive: -0.192
29 | GGAGAUGGGCAAAGAGAUCTT against D19Ertd144e | inactive: -0.0448
30 | GGUUCAACAAAACAAAGAGTT against Steap | inactive: -0.0309
31 | GCCCUUAGAAGUCAUUGAGTT against 2700050C12Rik | inactive: -1.13
32 | GGAAAUGGUAGCCAGAGUGTT against LOC212871 | inactive: 0.745
33 | GCCUCCUGAAUGACCACAUTT against Klk27 | inactive: -0.00137
34 | GGUCUCCUAUCAGAAAGCCTT against Dyt1 | inactive: 1.47
35 | GCCUUUAGACUAAACAGCCTT against 2400002F02Rik | inactive: 1.2
36 | GGAUGAACGGAGGAAAAUUTT against Sox13 | inactive: -2.19
37 | GGAGGAGAAAUGGAUCACATT against H2afx | inactive: 0.139
38 | GCUAUCGGGUAUGGUUGCUTT against Prrxl1 | inactive: -0.957
39 | CCUGGAAAGACUCUCGGAGTT against Cln2 | inactive: -0.492
40 | CCACAUGGAACCACUAACUTT against Wnt11 | inactive: 0.531
41 | CGAAUGGCUAUCAGUGAGGTT against 2810442O16Rik | inactive: -0.098
42 | GGAUGUACCACCUUUCUGGTT against Klhl6 | inactive: 1.02
43 | GGUACUGAGUGUGUUUUGCTT against Olfr1364 | inactive: 0.233
44 | GCACUGUAUUCUUGAGCACTT against 1700020L24Rik | inactive: 0.183
45 | GGACAGUUUACUCCAGAUATT against Foxc1 | inactive: 2.33
46 | GGGUCCAGUCAAUCAGAAATT against Znhit2 | inactive: -0.0601
47 | GCAUCGAUAUCAGGACAUGTT against Deaf1 | inactive: -1.31
48 | GGUCCAAGAGAAAUGUGUATT against 4933428I03Rik | inactive: 2.55
49 | CGUACACCAUUCAAGGUACTT against Kif20a | inactive: -0.00548
50 | GGCACUUGUGAGAAAAAUCTT against 3830422K02Rik | inactive: -0.225
51 | GGCAGCAUGAAAGAAAAAATT against 6820428D13 | inactive: 1.14
52 | GGAGAACAACAAAGACAAGTT against Hoxb8 | inactive: -0.978

Row | Sequence | z-score
53 | GCUCCAACCCAAGAAAUUCTT against Hlx1 | inactive: 0.989
54 | GGGUCUUCACUUUGAACCUTT against Adk | inactive: -1.24
55 | GGUCGGGAAGUGGUAAAACTT against Traf3ip1 | inactive: 2.15
56 | GGAUUUCGACAAUAUGAAGTT against Chrnb2 | active: 2.24
57 | GGUUGAAAAAGAACAGUGCTT against Bnc1 | inactive: -1.48
58 | GGAGGUUACCUUCUACAGCTT against Il8rb | inactive: 2.29
59 | GGUGCUUCUGGGAAACUUCTT against 2600011C06Rik | inactive: -2.6
60 | GGUCCAAAAAUGGCUUGGCTT against Fabp9 | inactive: 0.0757
61 | CCUCAGAUGGAGGUUACUCTT against Inha | inactive: -1.92
62 | GGCAUAUUUGCCUGCAUAATT against C030019F02Rik | inactive: -1.17
63 | CAAUGACAGCAGAUGACGUTT against Crabp2 | inactive: 1.23
64 | GGCUCACUCUCCAUUCUACTT against Asb6 | inactive: -0.374
65 | GCAAUGGUUGAAGAAAUUUTT against 9030611K07Rik | inactive: -0.0859
66 | GCAGCCAAGUGGGUAACUUTT against Nicn1 | inactive: -1.49
67 | CCACCAGAUACAUAUUUGUTT against Gnpnat1 | inactive: 0.683
68 | GCUGUUAUCAACUUACUAATT against Rpe | inactive: -0.28
69 | GGACAGCAUGAACUAACCCTT against Ednra | inactive: 0.769
70 | GGAUAGACACUAGGAUCCUTT against Pdcd1lg2 | inactive: 1
71 | GCUCCUCAUUAAGGCUGUCTT against 1110037P11Rik | inactive: -2.16
72 | GGCAGCAGUGAAGAAAGUATT against Olfr131 | inactive: -1.01
73 | GGAACGUGGAUCUUUUUAUTT against Wiz | inactive: 0.484
74 | GGACUGUAUCUCCAUCAAATT against 2210417D09Rik | inactive: 0.115
75 | GGGCAUCGAUAUCAUGCUATT against Epb4.1l1 | inactive: 1.49
76 | GCACCUCUACUAUGAGGCUTT against 1110020C03Rik | inactive: -1.06
77 | GGAACUGGCUUCAAACCUUTT against MGC41689 | inactive: -0.886
78 | GCUGGACGGUAGAAGAAUCTT against G430041M01Rik | inactive: -0.573

Row | Sequence | z-score
79 | GCAUAGUGGAACAGUCUAUTT against Tcte1l | inactive: 0.923
80 | GCCCUCUCCAAACAUUGAATT against Neo1 | inactive: -0.733
81 | GGCCAUGGGUAUUAAUGACTT against Dhx8 | inactive: -0.895
82 | GCACAUGCAUGGCUCUAAGTT against AA589481 | inactive: -0.729
83 | GCUACCUGUCUGGACAUUUTT against Gfra3 | inactive: -1.03
84 | CCGUCAUACUCCGUGAUUCTT against Samd11 | inactive: 1.56
85 | GGUGAAGGUGCCUUCCAAATT against Il27ra | inactive: -0.54
86 | GCUUGUCCUUUUUAGACAATT against Ipmk | inactive: 0.639
87 | GGCCAGCUGAGCUUAAAGATT against Ccna2 | inactive: -1.48
88 | GGACUUUCACAGACCACUUTT against Rgma | inactive: 0.765
89 | CCAAUUUAACUGUUGGUGGTT against Supt5h | inactive: 0.616
90 | GGAAGAAAUGGAAUUGAAGTT against Pcdhga6 | inactive: -0.434
91 | GCCAAUGAAAAACACCACUTT against Adam12 | inactive: -0.445
92 | GCAAAAAAUCACUUCGAGUTT against Mgat4a | inactive: -0.405
93 | GGCUCGUUCCAACCCUUUATT against Dbx1 | inactive: -0.155
94 | CGAAUUCAUACCAAGAAAGTT against Myo3a | inactive: 0.632
95 | CCUCCUGUCGGACAGUGAATT against Gm93 | inactive: -1.77
96 | GCCUCGAUGGACUCAACAUTT against BC011210 | inactive: -0.425
97 | GGAAGAUAUUGGUAAAAACTT against Ube1y1 | inactive: 0.333
98 | GGACUGAGAAAACUCCAAATT against A630042L21Rik | inactive: -1.61
99 | GGCCAUUGACUUUGUGGAUTT against BC023835 | inactive: 0.665
100 | GGGCCAUGUAUCUUGACAUTT against 1700011H14Rik | inactive: -0.976
101 | GGUCAUCGAUAAGAAAAGATT against Hunk | inactive: -1.64
102 | CUUAGCUUACAAACAAGGCTT against MGC5739 | inactive: 3.4
103 | GCCAAAACUCUGUUAGAUATT against Anapc7 | inactive: 1.62
104 | GCAUUCGCUACAAUUCCAUTT against Slc31a1 | inactive: -0.475
